Some of the results follow. The data scatter; read single values as rough.
The targets below were run with ClCC(=O)N[C@H]1CCCc2ccccc12 (assay: log2 mean competition ratio of IA-DTB cysteine labelling (DMSO/compound) (log2 ratio); higher = stronger cysteine engagement by compound). Settings: 50 µM; treatment time: 4 h; cell line lysate: HEK293T.
Method: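 IA-DTB competitive cysteine chemoproteomics in HEK293T RIPA lysate. Lysates were treated with compound 29 or 30 at 50 or 200 µM for 4 h, then IA-DTB (500 µM, 1 h), trypsin-digested, NeutrAvidin-enriched and analysed by diaPASEF. Competition ratio = intensity DMSO / intensity compound (n=4 treated, n=64 DMSO); binding: mean log2 CR ≥ 1 and p ≤ 0.05 plus QC filters. Target is the cysteine site.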

Chains of the proteins cited; added tags and fusions are not shown. Lines headed by an entry give the natural chain unless they say otherwise; changes in a name come on top. Residues count along the entry.
UniProt Q9C0B0: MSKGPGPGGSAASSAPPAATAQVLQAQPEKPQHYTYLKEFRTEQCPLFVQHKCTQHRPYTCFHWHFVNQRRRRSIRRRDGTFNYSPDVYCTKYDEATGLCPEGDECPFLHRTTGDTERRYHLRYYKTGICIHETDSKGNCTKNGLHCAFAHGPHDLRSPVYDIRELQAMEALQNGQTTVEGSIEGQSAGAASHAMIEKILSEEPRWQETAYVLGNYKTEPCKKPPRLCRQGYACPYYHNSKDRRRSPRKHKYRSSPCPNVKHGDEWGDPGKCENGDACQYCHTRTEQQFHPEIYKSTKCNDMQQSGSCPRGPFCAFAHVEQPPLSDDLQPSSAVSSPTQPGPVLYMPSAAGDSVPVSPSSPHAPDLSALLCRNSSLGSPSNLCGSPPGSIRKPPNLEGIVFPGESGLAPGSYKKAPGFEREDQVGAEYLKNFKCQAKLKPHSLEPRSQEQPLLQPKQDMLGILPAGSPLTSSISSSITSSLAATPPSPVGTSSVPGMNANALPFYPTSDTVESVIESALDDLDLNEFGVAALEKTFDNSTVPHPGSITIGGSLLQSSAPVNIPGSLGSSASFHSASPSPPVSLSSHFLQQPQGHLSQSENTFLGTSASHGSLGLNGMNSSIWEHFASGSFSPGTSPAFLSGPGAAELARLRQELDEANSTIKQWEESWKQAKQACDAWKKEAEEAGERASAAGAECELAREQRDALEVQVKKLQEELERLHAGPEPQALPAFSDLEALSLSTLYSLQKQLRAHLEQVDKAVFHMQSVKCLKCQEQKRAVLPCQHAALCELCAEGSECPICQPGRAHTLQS
UniProt Q9UPU5, 1-24: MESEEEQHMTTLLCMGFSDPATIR
UniProt Q9UPT9: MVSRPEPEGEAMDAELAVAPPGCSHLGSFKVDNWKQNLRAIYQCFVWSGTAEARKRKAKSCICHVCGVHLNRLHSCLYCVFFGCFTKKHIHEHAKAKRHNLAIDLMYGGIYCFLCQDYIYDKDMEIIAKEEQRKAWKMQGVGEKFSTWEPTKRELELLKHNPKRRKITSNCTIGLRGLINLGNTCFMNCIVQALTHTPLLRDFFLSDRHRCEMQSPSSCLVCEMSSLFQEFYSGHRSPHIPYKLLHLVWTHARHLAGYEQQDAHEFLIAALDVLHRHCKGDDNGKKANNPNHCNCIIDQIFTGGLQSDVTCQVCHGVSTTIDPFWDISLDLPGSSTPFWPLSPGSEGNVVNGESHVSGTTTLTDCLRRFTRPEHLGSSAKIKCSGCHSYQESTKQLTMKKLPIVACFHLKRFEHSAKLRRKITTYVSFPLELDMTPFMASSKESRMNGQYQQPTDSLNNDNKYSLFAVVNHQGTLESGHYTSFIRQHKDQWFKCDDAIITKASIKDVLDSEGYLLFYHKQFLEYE
UniProt P07919: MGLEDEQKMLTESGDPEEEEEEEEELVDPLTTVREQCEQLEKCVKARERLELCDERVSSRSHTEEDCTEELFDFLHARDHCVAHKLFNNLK
UniProt Q7Z7G8, 1999-2021: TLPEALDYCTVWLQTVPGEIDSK
UniProt Q70CQ2: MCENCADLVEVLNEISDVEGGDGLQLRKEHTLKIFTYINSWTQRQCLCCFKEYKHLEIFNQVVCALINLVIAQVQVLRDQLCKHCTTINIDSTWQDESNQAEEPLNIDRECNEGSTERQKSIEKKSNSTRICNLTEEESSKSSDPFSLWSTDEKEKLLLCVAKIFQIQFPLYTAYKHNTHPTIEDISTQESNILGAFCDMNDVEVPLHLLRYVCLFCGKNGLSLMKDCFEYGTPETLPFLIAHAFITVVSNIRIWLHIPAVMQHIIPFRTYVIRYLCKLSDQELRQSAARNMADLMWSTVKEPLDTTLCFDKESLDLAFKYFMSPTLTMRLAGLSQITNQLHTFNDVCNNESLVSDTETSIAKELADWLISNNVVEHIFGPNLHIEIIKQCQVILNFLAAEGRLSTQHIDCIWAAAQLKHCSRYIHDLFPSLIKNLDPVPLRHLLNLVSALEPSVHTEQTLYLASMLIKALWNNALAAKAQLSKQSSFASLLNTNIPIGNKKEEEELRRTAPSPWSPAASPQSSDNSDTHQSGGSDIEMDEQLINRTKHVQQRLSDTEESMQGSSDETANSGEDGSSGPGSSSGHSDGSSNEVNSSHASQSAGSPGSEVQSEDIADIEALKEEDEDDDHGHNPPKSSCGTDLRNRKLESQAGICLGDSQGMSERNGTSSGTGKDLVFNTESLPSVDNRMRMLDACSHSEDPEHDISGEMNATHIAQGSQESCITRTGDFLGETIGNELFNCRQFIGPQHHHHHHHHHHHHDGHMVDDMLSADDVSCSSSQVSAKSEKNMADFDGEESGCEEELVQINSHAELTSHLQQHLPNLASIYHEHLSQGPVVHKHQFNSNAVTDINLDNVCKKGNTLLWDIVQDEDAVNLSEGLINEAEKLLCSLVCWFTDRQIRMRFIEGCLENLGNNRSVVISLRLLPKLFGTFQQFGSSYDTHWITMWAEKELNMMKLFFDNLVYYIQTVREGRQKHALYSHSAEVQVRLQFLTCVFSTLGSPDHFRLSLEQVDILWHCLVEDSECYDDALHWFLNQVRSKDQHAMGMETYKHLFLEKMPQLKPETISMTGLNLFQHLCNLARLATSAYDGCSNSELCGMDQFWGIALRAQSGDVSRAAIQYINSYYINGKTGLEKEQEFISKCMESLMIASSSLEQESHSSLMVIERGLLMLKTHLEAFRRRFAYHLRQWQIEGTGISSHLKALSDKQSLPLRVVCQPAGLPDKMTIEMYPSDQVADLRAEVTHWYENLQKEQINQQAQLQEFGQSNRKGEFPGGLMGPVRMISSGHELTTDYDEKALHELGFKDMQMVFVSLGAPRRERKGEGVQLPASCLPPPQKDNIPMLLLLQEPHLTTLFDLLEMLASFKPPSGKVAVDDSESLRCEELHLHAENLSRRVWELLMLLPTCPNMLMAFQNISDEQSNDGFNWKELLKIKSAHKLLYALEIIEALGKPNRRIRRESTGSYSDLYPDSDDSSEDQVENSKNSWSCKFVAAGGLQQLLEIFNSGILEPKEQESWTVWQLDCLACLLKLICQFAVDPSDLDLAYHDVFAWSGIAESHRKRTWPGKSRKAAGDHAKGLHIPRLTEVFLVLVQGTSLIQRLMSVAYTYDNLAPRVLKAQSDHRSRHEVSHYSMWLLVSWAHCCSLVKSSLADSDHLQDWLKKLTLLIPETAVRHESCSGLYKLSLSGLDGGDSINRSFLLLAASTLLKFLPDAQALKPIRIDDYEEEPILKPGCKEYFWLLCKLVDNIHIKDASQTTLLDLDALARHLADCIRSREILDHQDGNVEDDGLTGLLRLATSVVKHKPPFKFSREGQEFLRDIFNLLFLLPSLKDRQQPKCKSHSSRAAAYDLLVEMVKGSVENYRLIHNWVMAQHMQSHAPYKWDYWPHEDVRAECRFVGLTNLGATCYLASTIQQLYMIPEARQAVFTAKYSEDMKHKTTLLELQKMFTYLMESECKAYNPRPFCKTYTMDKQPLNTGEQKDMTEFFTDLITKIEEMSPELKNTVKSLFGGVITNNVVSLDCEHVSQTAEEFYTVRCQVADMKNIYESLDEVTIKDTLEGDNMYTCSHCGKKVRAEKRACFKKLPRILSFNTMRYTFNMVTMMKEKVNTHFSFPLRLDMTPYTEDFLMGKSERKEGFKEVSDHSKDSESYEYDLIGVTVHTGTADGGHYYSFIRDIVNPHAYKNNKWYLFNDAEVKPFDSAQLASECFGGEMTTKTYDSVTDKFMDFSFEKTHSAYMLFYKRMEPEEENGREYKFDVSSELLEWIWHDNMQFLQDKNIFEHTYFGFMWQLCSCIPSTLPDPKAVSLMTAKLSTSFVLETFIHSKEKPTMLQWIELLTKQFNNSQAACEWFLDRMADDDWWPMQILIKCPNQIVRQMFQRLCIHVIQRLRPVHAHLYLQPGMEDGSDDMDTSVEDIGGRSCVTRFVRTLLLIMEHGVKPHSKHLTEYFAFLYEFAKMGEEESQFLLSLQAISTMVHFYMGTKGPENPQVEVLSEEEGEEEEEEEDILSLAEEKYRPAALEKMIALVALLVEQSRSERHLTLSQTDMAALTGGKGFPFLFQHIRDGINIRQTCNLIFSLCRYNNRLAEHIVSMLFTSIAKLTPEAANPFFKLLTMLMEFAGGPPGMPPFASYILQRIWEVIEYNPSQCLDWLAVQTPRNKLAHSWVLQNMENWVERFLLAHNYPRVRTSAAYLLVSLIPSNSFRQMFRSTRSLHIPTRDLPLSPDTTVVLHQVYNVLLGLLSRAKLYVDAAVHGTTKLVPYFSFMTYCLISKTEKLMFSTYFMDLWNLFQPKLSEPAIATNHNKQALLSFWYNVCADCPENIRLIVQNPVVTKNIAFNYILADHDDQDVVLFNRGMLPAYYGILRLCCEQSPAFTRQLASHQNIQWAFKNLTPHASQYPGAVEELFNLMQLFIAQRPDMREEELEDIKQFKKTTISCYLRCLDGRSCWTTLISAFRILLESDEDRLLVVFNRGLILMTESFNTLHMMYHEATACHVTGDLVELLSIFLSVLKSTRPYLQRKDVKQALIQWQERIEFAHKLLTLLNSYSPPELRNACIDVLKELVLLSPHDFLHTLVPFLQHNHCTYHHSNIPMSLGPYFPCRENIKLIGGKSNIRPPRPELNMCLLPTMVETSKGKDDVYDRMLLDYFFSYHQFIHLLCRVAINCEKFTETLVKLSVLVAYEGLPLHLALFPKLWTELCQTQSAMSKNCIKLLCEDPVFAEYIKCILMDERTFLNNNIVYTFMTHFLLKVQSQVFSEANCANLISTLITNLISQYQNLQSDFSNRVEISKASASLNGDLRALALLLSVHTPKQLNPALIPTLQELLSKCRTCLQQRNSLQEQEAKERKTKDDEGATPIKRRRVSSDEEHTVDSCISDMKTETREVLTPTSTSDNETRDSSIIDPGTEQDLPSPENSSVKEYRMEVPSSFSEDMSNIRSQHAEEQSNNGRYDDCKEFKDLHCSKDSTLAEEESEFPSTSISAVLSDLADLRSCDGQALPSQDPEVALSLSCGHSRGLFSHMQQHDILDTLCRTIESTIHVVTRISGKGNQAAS
UniProt Q9NWZ5: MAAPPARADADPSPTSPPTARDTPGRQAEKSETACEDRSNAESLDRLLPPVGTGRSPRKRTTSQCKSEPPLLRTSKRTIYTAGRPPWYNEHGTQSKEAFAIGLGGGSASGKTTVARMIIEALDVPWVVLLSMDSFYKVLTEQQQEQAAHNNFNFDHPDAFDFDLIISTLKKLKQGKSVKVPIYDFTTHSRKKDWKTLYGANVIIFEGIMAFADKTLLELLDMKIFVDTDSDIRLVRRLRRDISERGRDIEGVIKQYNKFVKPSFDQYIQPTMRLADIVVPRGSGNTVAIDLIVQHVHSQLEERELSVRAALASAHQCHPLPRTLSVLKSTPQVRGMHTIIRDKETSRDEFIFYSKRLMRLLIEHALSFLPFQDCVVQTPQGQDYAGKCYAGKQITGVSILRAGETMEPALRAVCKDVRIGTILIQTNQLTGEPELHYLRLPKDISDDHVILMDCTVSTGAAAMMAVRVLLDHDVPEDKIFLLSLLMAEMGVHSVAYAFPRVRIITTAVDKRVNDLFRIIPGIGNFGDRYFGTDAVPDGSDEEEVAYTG
UniProt Q13107: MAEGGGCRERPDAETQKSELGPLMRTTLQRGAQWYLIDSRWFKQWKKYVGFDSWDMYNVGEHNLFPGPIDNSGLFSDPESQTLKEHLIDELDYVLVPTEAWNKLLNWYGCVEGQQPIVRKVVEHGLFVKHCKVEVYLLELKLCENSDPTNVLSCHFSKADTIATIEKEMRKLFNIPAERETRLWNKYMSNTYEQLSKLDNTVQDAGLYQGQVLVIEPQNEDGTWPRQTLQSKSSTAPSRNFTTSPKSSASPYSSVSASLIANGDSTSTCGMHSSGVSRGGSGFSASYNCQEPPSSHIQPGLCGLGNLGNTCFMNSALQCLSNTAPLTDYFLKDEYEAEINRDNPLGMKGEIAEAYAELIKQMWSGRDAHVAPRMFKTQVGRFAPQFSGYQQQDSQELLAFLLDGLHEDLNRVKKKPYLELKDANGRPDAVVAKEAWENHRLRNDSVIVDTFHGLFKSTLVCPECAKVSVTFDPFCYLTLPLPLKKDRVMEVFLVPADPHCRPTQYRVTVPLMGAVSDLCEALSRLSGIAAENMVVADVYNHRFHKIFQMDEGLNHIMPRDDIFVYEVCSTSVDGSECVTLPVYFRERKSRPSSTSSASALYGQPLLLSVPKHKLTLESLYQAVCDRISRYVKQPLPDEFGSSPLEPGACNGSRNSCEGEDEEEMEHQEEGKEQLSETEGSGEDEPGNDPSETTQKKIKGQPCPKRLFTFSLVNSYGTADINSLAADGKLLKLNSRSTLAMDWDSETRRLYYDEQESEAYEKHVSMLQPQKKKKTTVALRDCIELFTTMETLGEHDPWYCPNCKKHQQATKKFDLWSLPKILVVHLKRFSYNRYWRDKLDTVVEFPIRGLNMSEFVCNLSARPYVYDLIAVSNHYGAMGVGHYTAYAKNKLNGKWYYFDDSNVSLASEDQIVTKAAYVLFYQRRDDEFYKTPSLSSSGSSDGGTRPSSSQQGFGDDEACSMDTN

| Target | log2 mean competition ratio |
| --- | --- |
| UGP2 C123 | 0.0375 |
| UNK C45 (UniProt Q9C0B0) | -0.00536 |
| USP24 C802 (UniProt Q9UPU5) | -0.205 |
| USP24 C1859 (UniProt Q9UPU5) | -0.0312 |
| USP22 C44 (UniProt Q9UPT9) | 0.538 |
| USP16 C286 (UniProt Q9Y5T5) | 0.0507 |
| UTP20 C242 (UniProt O75691) | 0.137 |
| ULK1 C927 (UniProt O75385) | 0.801 |
| UNC45A C535 (UniProt Q9H3U1) | -0.669 |
| UQCRH C67 (UniProt P07919) | 0.715 |
| UTP6 C175 (UniProt Q9NYH9) | 0.183 |
| USP24 C14 (UniProt Q9UPU5) | 0.43 |
| VAC14 C719 (UniProt Q08AM6) | 0.106 |
| VPS13B C2007 (UniProt Q7Z7G8) | -0.275 |
| UHRF2 C14 (UniProt Q96PU4) | -0.348 |
| USP34 C1380 (UniProt Q70CQ2) | -0.937 |
| USP48 C39 (UniProt Q86UV5) | 0.143 |
| VPS11 C709 (UniProt Q9H270) | -0.164 |
| UCKL1 C35 (UniProt Q9NWZ5) | -0.124 |

| Target | log2 mean competition ratio |
| --- | --- |
| VARS1 C663 | -0.0415 |
| USP24 C1628 (UniProt Q9UPU5) | 0.0302 |
| USO1 C303 (UniProt O60763) | 0.0538 |
| USP4 C7 (UniProt Q13107) | -0.222 |
| UBXN7 C160 | -0.0446 |
| USP34 C2364 (UniProt Q70CQ2) | 0.333 |
| UQCRH C37 (UniProt P07919) | 0.251 |
| USPL1 C534 | -0.179 |
| VAX2 C76 | 0.00661 |
| USP34 C856 (UniProt Q70CQ2) | 0.287 |
| VPS13B C2907 (UniProt Q7Z7G8) | 0.3 |
| UNK C696 (UniProt Q9C0B0) | 0.325 |
| VPS13D C374 (UniProt Q5THJ4) | -0.0554 |
| VEZF1 C327 (UniProt Q14119) | -0.0869 |
| VKORC1L1 C58 | 0.449 |
| UCHL5 C191 | -0.704 |
| UTP15 C385 (UniProt Q8TED0) | 0.748 |
| USP54 C1394 (UniProt Q70EL1) | 0.109 |
| UPF2 C315 (UniProt Q9HAU5) | 0.307 |

Same assay, conditions: 200 µM; treatment time: 4 h; cell line lysate: HEK293T

| Target | log2 mean competition ratio |
| --- | --- |
| UGP2 C123 | 0.0177 |
| UNK C45 (UniProt Q9C0B0) | -0.000886 |
| USP24 C802 (UniProt Q9UPU5) | -0.0155 |
| USP24 C1859 (UniProt Q9UPU5) | -0.294 |
| USP22 C44 (UniProt Q9UPT9) | -0.127 |
| USP16 C286 (UniProt Q9Y5T5) | 0.0316 |
| UTP20 C242 (UniProt O75691) | -0.292 |
| ULK1 C927 (UniProt O75385) | -0.155 |
| UNC45A C535 (UniProt Q9H3U1) | 0.144 |
| UQCRH C67 (UniProt P07919) | 0.492 |
| UTP6 C175 (UniProt Q9NYH9) | -0.103 |
| USP24 C14 (UniProt Q9UPU5) | -0.384 |
| VAC14 C719 (UniProt Q08AM6) | 0.0572 |
| VPS13B C2007 (UniProt Q7Z7G8) | 0.25 |
| UHRF2 C14 (UniProt Q96PU4) | -0.0818 |
| USP34 C1380 (UniProt Q70CQ2) | 0.187 |
| USP48 C39 (UniProt Q86UV5) | 0.148 |
| VPS11 C709 (UniProt Q9H270) | -0.114 |
| UCKL1 C35 (UniProt Q9NWZ5) | 0.257 |

| Target | log2 mean competition ratio |
| --- | --- |
| VARS1 C663 | 0.0426 |
| USP24 C1628 (UniProt Q9UPU5) | -0.0417 |
| USO1 C303 (UniProt O60763) | 0.117 |
| USP4 C7 (UniProt Q13107) | 0.326 |
| UBXN7 C160 | -0.139 |
| USP34 C2364 (UniProt Q70CQ2) | 0.0787 |
| UQCRH C37 (UniProt P07919) | 0.389 |
| USPL1 C534 | -0.181 |
| VAX2 C76 | 0.792 |
| USP34 C856 (UniProt Q70CQ2) | 0.0685 |
| VPS13B C2907 (UniProt Q7Z7G8) | -0.25 |
| UNK C696 (UniProt Q9C0B0) | -0.0595 |
| VPS13D C374 (UniProt Q5THJ4) | 0.336 |
| VEZF1 C327 (UniProt Q14119) | 0.0498 |
| VKORC1L1 C58 | 0.0739 |
| UCHL5 C191 | -0.441 |
| UTP15 C385 (UniProt Q8TED0) | 0.181 |
| USP54 C1394 (UniProt Q70EL1) | 0.391 |
| UPF2 C315 (UniProt Q9HAU5) | -0.21 |
